Measurements published in BindingDB's records for doi:10.1111/j.1476-5381.1995.tb14977.x (Syntex Discovery Research, 1995).

Amino acid sequences for entries named in this document (tags omitted).
UniProt P41595, whole entry: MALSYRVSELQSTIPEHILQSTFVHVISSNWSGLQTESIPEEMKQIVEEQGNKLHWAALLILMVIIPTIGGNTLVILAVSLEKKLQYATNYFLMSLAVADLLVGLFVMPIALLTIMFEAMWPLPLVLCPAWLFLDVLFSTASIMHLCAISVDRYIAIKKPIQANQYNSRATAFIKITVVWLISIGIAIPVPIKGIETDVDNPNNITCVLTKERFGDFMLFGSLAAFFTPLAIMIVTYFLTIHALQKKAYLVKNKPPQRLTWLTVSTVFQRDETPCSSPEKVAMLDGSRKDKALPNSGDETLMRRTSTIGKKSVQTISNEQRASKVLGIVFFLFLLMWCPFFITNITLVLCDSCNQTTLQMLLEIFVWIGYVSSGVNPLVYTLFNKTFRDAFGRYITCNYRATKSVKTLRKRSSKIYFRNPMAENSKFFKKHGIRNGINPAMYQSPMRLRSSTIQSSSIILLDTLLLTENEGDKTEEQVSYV

Molecular target: 5-hydroxytryptamine receptor 2B (Homo sapiens, UniProt P41595)

Compound CC[C@@H](CO)NC(=O)[C@@H]1C=C2c3cccc4c3c(cn4C)C[C@H]2N(C)C1 has a Ki of 7.94 nM.
